PubChem BioAssay AID1259308 | NCATS | 2017
In all, the deposit lists about 59,000 reagents; this is a part drawn at random. About 1,510 of all reagents (2.6%) were called active. 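Calls use total luciferase alone and ignore viability, so some active siRNAs may act by altering cell number.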 Entries without a mark were called inactive. Reagents against one gene are numbered here.

Screen: 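Knock-downs that increase output of a recombinant reporter protein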 (primary screen)
Cells: human HEK293 embryonic kidney cells stably expressing firefly luciferase (HEK-CMV-Luc2-Hygro)
Reagents: single siRNA against human genes, 0.8 pmol siRNA per well
Duration: 72 h
Read-out: 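Luciferase light (ONE-Glo) measured on one replicate plate set and viability (CellTiter-Glo) on the other, scaled to a negative control siRNA, with robust z-scores and luciferase per cell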
Scale: total luciferase, z-score and total luciferase, % of control: higher = more reporter protein produced; luciferase per cell, z-score: higher = more reporter output per viable cell; viable cells, % of control: higher = more viable cells
Active means: 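Active when the median/MAD z-score for overall luciferase is greater than 3; a gene was taken forward for validation with new siRNAs if at least two of its three siRNAs passed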
Meaning of the calls: active = raised luciferase; inactive = no rise

| gene symbol | siRNA no. | total luciferase, z-score | total luciferase, % of control | luciferase per cell, z-score | viable cells, % of control |
| --- | --- | --- | --- | --- | --- |
| ARNT (aryl hydrocarbon receptor nuclear translocator) | 1 | 1.73 | 116 | 2.37 | 69.7 |
| ARNT (aryl hydrocarbon receptor nuclear translocator) | 2 | 2.81 | 138 | 1.86 | 94.3 |
| ARNT (aryl hydrocarbon receptor nuclear translocator) | 3 | 0.353 | 88.9 | 0.339 | 90.9 |
| ENDOD1 (endonuclease domain containing 1) | 1 | 1.99 | 122 | 2.04 | 79.3 |
| ENDOD1 (endonuclease domain containing 1) | 2 | 1.08 | 103 | 0.909 | 90.9 |
| ENDOD1 (endonuclease domain containing 1) | 3 | -1.65 | 49.2 | -1.77 | 87.5 |
| GRB2 (growth factor receptor bound protein 2) | 1 | 2 | 122 | 1.37 | 94.7 |
| GRB2 (growth factor receptor bound protein 2) | 2 | -1.81 | 45.8 | -1.39 | 73.9 |
| GRB2 (growth factor receptor bound protein 2) | 3 | -1.48 | 52.5 | -1.03 | 77 |
| HS3ST6 (heparan sulfate-glucosamine 3-sulfotransferase 6) | 1 | -1.73 | 47.4 | 0.145 | 51 |
| HS3ST6 (heparan sulfate-glucosamine 3-sulfotransferase 6) | 2 | 0.829 | 98.4 | 0.217 | 104 |
| HS3ST6 (heparan sulfate-glucosamine 3-sulfotransferase 6) | 3 | -0.862 | 64.7 | -1.36 | 103 |
| RXRB (retinoid X receptor beta) | 1 | 0.0591 | 83.1 | -0.0153 | 93.2 |
| RXRB (retinoid X receptor beta) | 2 | -0.0106 | 81.7 | -0.587 | 107 |
| RXRB (retinoid X receptor beta) | 3 | -0.658 | 68.8 | -1.23 | 106 |
| OR6B3 (olfactory receptor family 6 subfamily B member 3) | 1 | 1.57 | 113 | 1.07 | 95.2 |
| OR6B3 (olfactory receptor family 6 subfamily B member 3) | 2 | 0.996 | 102 | 0.551 | 98.3 |
| OR6B3 (olfactory receptor family 6 subfamily B member 3) | 3 | 0.727 | 96.3 | -0.186 | 113 |
| RPL26 (ribosomal protein L26) | 1 | -1.55 | 51.1 | 0.953 | 44.4 |
| RPL26 (ribosomal protein L26) | 2 | -3.31 | 16 | -3.47 | 44.6 |
| RPL26 (ribosomal protein L26) | 3 | -3.42 | 13.9 | -4.66 | 52.8 |
| PDCD2 (programmed cell death 2) | 1 | -0.71 | 67.8 | -0.227 | 80.4 |
| PDCD2 (programmed cell death 2) | 2 | -1.26 | 56.9 | -1.72 | 100 |
| PDCD2 (programmed cell death 2) | 3 | 0.505 | 91.9 | 1.16 | 75.7 |
| RHBDL3 (rhomboid like 3) | 1 | -0.64 | 69.2 | -0.78 | 94.9 |
| RHBDL3 (rhomboid like 3) | 2 | -1.12 | 59.7 | -1.56 | 100 |
| RHBDL3 (rhomboid like 3) | 3 | -0.0651 | 80.6 | -0.303 | 97.5 |
| BICDL1 (BICD family like cargo adaptor 1) | 1 | 1.06 | 103 | 1.62 | 75.1 |
| BICDL1 (BICD family like cargo adaptor 1) | 2 | 2.09 | 123 | 1.03 | 105 |
| BICDL1 (BICD family like cargo adaptor 1) | 3 | 0.753 | 96.9 | 2.24 | 60 |
| ZNF558 (zinc finger protein 558) | 1 | 0.0371 | 82.6 | 0.795 | 74.9 |
| ZNF558 (zinc finger protein 558) | 2 | 1.71 | 116 | 1.8 | 80.6 |
| ZNF558 (zinc finger protein 558) | 3 | 2.67 | 135 | 2.11 | 86.5 |
| TDRD5 (tudor domain containing 5) | 1 | -0.228 | 77.4 | -0.247 | 92.3 |
| TDRD5 (tudor domain containing 5) | 2 | -0.704 | 67.9 | -1.04 | 99.7 |
| TDRD5 (tudor domain containing 5) | 3 | -0.355 | 74.8 | -0.609 | 98.2 |
| PSMG3 (proteasome assembly chaperone 3) | 1 | -1.06 | 60.7 | -1.35 | 96.7 |
| PSMG3 (proteasome assembly chaperone 3) | 2 | -1.91 | 43.9 | -1.94 | 81.6 |
| PSMG3 (proteasome assembly chaperone 3) | 3 | 2.14 | 124 | 1.67 | 89.6 |
| HDIP1 (HDAC and MIER1 interacting protein 1) | 1 | 0.806 | 97.9 | 0.736 | 90.1 |
| HDIP1 (HDAC and MIER1 interacting protein 1) | 2 | -0.961 | 62.8 | -0.541 | 80.9 |
| HDIP1 (HDAC and MIER1 interacting protein 1) | 3 | 0.0152 | 82.2 | 0.162 | 88 |
| SRF (serum response factor) | 1 | 0.207 | 86 | 0.944 | 74.9 |
| SRF (serum response factor) | 2 | -0.549 | 71 | -0.114 | 81.7 |
| SRF (serum response factor) | 3 | -1.5 | 52 | -1.72 | 91.5 |
| RERG (RAS like estrogen regulated growth inhibitor) | 1 | -0.802 | 65.9 | -1.14 | 99.6 |
| RERG (RAS like estrogen regulated growth inhibitor) | 2 | -0.454 | 72.9 | -0.0361 | 82.2 |
| RERG (RAS like estrogen regulated growth inhibitor) | 3 | -0.429 | 73.3 | -0.509 | 93.7 |
| CEP350 (centrosomal protein 350) | 1 | 0.179 | 85.4 | -0.175 | 100 |
| CEP350 (centrosomal protein 350) | 2 | -0.702 | 67.9 | -0.0784 | 77.5 |
| CEP350 (centrosomal protein 350) | 3 | -0.295 | 76 | -0.0569 | 86.2 |
| ASF1B (anti-silencing function 1B histone chaperone) | 1 | -2.13 | 39.5 | -2.21 | 78.9 |
| ASF1B (anti-silencing function 1B histone chaperone) | 2 | 0.587 | 93.6 | -0.114 | 108 |
| ASF1B (anti-silencing function 1B histone chaperone) | 3 | -1.31 | 55.8 | -0.608 | 73.2 |
| CRCP (CGRP receptor component) | 1 | 0.162 | 85.1 | 0.116 | 92.2 |
| CRCP (CGRP receptor component) | 2 | 0.202 | 85.9 | -0.139 | 99.6 |
| CRCP (CGRP receptor component) | 3 | -0.838 | 65.2 | -0.553 | 84.3 |

Part of the list above in another layout:
gene symbol	siRNA no.	total luciferase, z-score	total luciferase, % of control	luciferase per cell, z-score	viable cells, % of control
RPL26 (ribosomal protein L26)	3	-3.42	13.9	-4.66	52.8
PDCD2 (programmed cell death 2)	1	-0.71	67.8	-0.227	80.4
PDCD2 (programmed cell death 2)	2	-1.26	56.9	-1.72	100
PDCD2 (programmed cell death 2)	3	0.505	91.9	1.16	75.7
RHBDL3 (rhomboid like 3)	1	-0.64	69.2	-0.78	94.9
RHBDL3 (rhomboid like 3)	2	-1.12	59.7	-1.56	100
RHBDL3 (rhomboid like 3)	3	-0.0651	80.6	-0.303	97.5
